Experimental data from the supplement of paper PMC5949888.
Most values lie at the floor of the assay. Slopes are relative: functional sequences can read slightly below zero.

Tested on: Saccharomyces cerevisiae PS128 hsf1 delta, HSF1(1-493) fusion
Assay: growth estimate (transactivation domain function in HSF1 fusion, heat-shock survival) (a.u. (slope of normalised read count over time)); higher = stronger growth at 37°C, i.e. more transactivation activity
Conditions: library: random library

Row | Substance | growth estimate
1 | SDPRGEEVSGRNLSLME | < -0.25
2 | PGTCVE | < -0.25
3 | PTAVDWRTRSEAPLLRLLTL | < -0.25
4 | SITRLCAPALWVLLC | < -0.25
5 | HDMAKYMLLWDYGGTWVSTR | < -0.25
6 | SGLRCFCVP | < -0.25
7 | KLTPRGLT | < -0.25
8 | DVIK | < -0.25
9 | NKGRCGQRIAHFITTVVIR | < -0.25
10 | RVQRTEPLLFYVFPMLPL | < -0.25
11 | TSDDEVHMLWSDNGNFPPDF | 0.213
12 | SGVQYHFMRLKAWYSCLTSA | < -0.25
13 | TTSNARIHLLIYRRHIIECG | < -0.25
14 | LRMA | < -0.25
15 | GTDPDVRVRSDSEL | < -0.25
16 | LLGAVGPSFSDRKRQAKRHA | < -0.25
17 | CKH | < -0.25
18 | SVFPA | < -0.25
19 | SCAAFKGNALSVRSCRVENR | < -0.25
20 | GMDATMSHAGEYEQP | < -0.25
21 | SDTTDLRQVLPRYSCIDLTS | < -0.25
22 | ATGSALLRC | < -0.25
23 | LVSPRGRTVTISERTGNNLA | < -0.25
24 | ATFGGNNVLIENVGVKPSCI | < -0.25
25 | LSRRDWCQHQQDGNICSWHY | < -0.25

Row | Substance | growth estimate
26 | GKVAGLRPRLAN | < -0.25
27 | VPLNWSGKTRRWSGKHLKVV | < -0.25
28 | LKKPLSSSQHCLKGAKRATE | < -0.25
29 | TGPLVAVGNELILILAIV | < -0.25
30 | HLQISTVAWTRSLRRYDTVA | < -0.25
31 | MPQCL | < -0.25
32 | LREIMVDMPIPSWFRVMFF | < -0.25
33 | HGGGR | < -0.25
34 | QIHRSSLGQGCGPSNSIS | < -0.25
35 | RTLESRWKSEYGFQEAQCRK | < -0.25
36 | MDDEYRGLQILLSCGP | < -0.25
37 | EYGWITIIIVNDRIGQASYG | < -0.25
38 | VTTRRRIQGGLRWLITENSV | < -0.25
39 | QTAKSPLRRTESPWAISCRG | < -0.25
40 | RGISFLLSGMSGPRSTLPWL | < -0.25
41 | ELKASVLHRLTLGFGSKDSL | < -0.25
42 | GQFILKNGM | < -0.25
43 | EEKRRRARTEVTLRVTGEGR | < -0.25
44 | HILH | < -0.25
45 | CVSWLPVVNVLSLSSYHTGA | < -0.25
46 | TFFLVGDKELQWRRYCVVIG | < -0.25
47 | LGRRELPMVASLLVLWLSAL | < -0.25
48 | RFSHSRFWVCWRDNGAFRHG | < -0.25
49 | GAAYSAAVWFGGWARMVTEL | < -0.25
50 | RALRARHFRWSEALCSCGVS | < -0.25

Row | Substance | growth estimate
51 | PPLRRVQMKPLRTGSLNLVK | < -0.25
52 | SELCDGDDGGRPS | < -0.25
53 | PVGELGEWAPGRSARV | < -0.25
54 | VAWDCVCRKCIKEKFRSVDS | < -0.25
55 | FSLDSN | < -0.25
56 | TGIGERAGRPFRTQLCDMQI | < -0.25
57 | TVLNGQMERAWVALLTSNRL | < -0.25
58 | YTTAGLN | < -0.25
59 | MGSVSVRRGYSRLFASGT | -0.243
60 | PFAHTDCNLQVARRLWSVTP | < -0.25
61 | AGHAL | < -0.25
62 | QTGGCLSMIQHARDLYIVFL | < -0.25
63 | SGFSKV | < -0.25
64 | HAVIGYPSLLIPRGSTDWGP | < -0.25
65 | GRIKL | < -0.25
66 | TARYRHVA | < -0.25
67 | VETRELAFHGFDVGALEYAG | < -0.25
68 | GRDRSPCSDSMSELGGRGGD | < -0.25
69 | GTILHQDLNRFTSSQAD | -0.197
70 | EDIRRRLLGGLGRGSG | < -0.25
71 | RELESILPPERKSIQRTTLR | < -0.25
72 | RLHWFYGALLMSPALLPGPR | < -0.25
73 | RTWSARRSPTLSLSITEVLW | < -0.25
74 | WIHGRRIRPIVKFSLRSVHK | < -0.25
75 | PSFATGTCRCPPSFGRSTWM | < -0.25

Row | Substance | growth estimate
76 | AAVHYEDQLPPGRAESLIRG | < -0.25
77 | LCLGGITASQSDVTYQNHGP | < -0.25
78 | AAPHNN | < -0.25
79 | AGWFGRVCAYRPTRCVRNDP | < -0.25
80 | GVWFSVGYIPIDWHCGDWRV | < -0.25
81 | WGYRGNMQSPGH | < -0.25
82 | SAVREGGVDLVKGTLRVNVG | < -0.25
83 | VSGPHVWRVGSRPMQNSKSA | < -0.25
84 | CRGFIRMQWGARGPHFLHRP | < -0.25
85 | LHVKKRQCFSILSPRPGIGT | < -0.25
86 | TTTV | < -0.25
87 | VGIYEWRECRTRYTWPCYSA | < -0.25
88 | TWFNALAVT | < -0.25
89 | GTILRRGITSVTPVEH | < -0.25
90 | LLSGNVRVKQGNL | < -0.25
91 | GGCYGGK | < -0.25
92 | PVNEQ | < -0.25
93 | CPAFKGSLDTKGVDIVLMYM | < -0.25
94 | CVNLVRGHRRPLWQICTFNL | < -0.25
95 | MSRGSLSTRKWYCGGPKISV | -0.245
96 | STSSAMPVSRSIEKQSGRWP | < -0.25
97 | TGKYSRKISLPGVFGRPRMV | < -0.25
98 | LWVRATNIRDA | < -0.25
99 | SSSKAIPSSPKPGKATPPQH | < -0.25
100 | VKGELLDCSCLGIVTLHSVL | < -0.25

An excerpt of these results, with tabs.
Row	Substance	growth estimate
20	GMDATMSHAGEYEQP	< -0.25
21	SDTTDLRQVLPRYSCIDLTS	< -0.25

Four records picked at random from the list so far, as already listed:
Row | Substance | growth estimate
84 | CRGFIRMQWGARGPHFLHRP | < -0.25
26 | GKVAGLRPRLAN | < -0.25
65 | GRIKL | < -0.25
50 | RALRARHFRWSEALCSCGVS | < -0.25

Going on with the list:

Row | Substance | growth estimate
101 | LRGQARLRASPSYSHSVARP | < -0.25
102 | TCE | < -0.25
103 | KAGHLAGGLFSRSKLVTL | < -0.25
104 | FSASGSGSQHANTT | < -0.25
105 | FIFW | < -0.25
106 | VQIIAMQWA | < -0.25
107 | AHKLEAAGILPRFLSTLG | < -0.25
108 | NMRGFGAIRCCCATFLNAS | -0.243
109 | LLTYVAHDSL | < -0.25
110 | LPVPSRRRVF | < -0.25
111 | HGSSSPSV | < -0.25
112 | GNVKVTHG | < -0.25
113 | VFRASHR | < -0.25
114 | YRPCIDFIHRQTFVAQPAQR | < -0.25
115 | TVGITLKLVGVYQVAA | < -0.25
116 | IKFTQVEL | < -0.25
117 | SRLDRKAPP | < -0.25
118 | SVPCRWAY | < -0.25
119 | AWSIYSGVRRHDASSPGSGD | < -0.25
120 | CPYTGLVIHGMQWTYLGG | < -0.25
121 | ASCCGFV | < -0.25
122 | RTWPARLLVRGSTTCVMSRT | < -0.25
123 | LATACGRPG | < -0.25
124 | KEIRWRAGKASCQGLNTRRM | < -0.25
125 | LRRFGMEASRGHVRIVDGSR | < -0.25

Row | Substance | growth estimate
126 | CIYEGQPRGRPTSGIHGVLT | < -0.25
127 | WTTSRT | < -0.25
128 | NLLIMDRSITHRHPPILPMP | < -0.25
129 | LVTLYRTDVNCLDRSGHHVH | < -0.25
130 | NTTLVAIHG | < -0.25
131 | EILRLKAEHPAAS | < -0.25
132 | ASMG | < -0.25
133 | WRVTTAPRKITSHSVSRYHP | < -0.25
134 | QRLDSRTSRN | < -0.25
135 | TERPLHDYRVKVTCFPSTRH | < -0.25
136 | QAVI | < -0.25
137 | TNIRDA | < -0.25
138 | GEGRAVRFIGRAGLRGDQLR | < -0.25
139 | TGLRQPAFSTCLFGAYPTFL | -0.166
140 | VTWLF | < -0.25
141 | VGWGLPLLARNRFRLTPQTR | < -0.25
142 | QMRPIHRNVMAMGIERPRRT | < -0.25
143 | FLLGIGRPLVMLGKRRPP | < -0.25
144 | RHIRPNFAW | < -0.25
145 | YHFKRLTRALRDSHPCEGRY | < -0.25
146 | QGASAVWSRKS | < -0.25
147 | VGPQMGTGAEMAVDVMLIYT | < -0.25
148 | GVKSI | < -0.25
149 | MRLRAGWSGGVAINLDV | < -0.25
150 | LPRDWTHYGRKALGGRYPGP | < -0.25

Row | Substance | growth estimate
151 | APTCARRNSISISGPSETRG | < -0.25
152 | RRLTPIVTWTKPGLTRESGL | < -0.25
153 | PRPTRNRVPRFACGA | < -0.25
154 | RTRAVVITC | < -0.25
155 | NWIPYEHVQNPGAASML | < -0.25
156 | IRQRTLEPLA | < -0.25
157 | PYQRHGLGLREC | < -0.25
158 | TVHRRSVYGS | < -0.25
159 | QLGWLVH | < -0.25
160 | YFIPMGCPKPAGGIRK | < -0.25
161 | GYVVRIHAAPPRSS | < -0.25
162 | LKMAGGVGRSDASPGVK | < -0.25
163 | RYTVVKQYWVLKSVRTRHLT | < -0.25
164 | GDEVR | < -0.25
165 | ELLLVKVPKVS | < -0.25
166 | EYAKCKA | < -0.25
167 | YSLTADLRVETLCEACCGDV | < -0.25
168 | VGGWLQWIGIWVYPEMLEP | < -0.25
169 | IWARSSIDPRQHGVSIKDK | < -0.25
170 | GQATHRRSD | < -0.25
171 | RCRFLSDPEVTGMTAIVRTK | < -0.25
172 | IEIMS | < -0.25
173 | LIVGGHMETCASKRNVYVGC | < -0.25
174 | MHCGDTQPLGLATK | < -0.25
175 | IHYA | < -0.25

Row | Substance | growth estimate
176 | TGPNIQAVL | < -0.25
177 | RWGSILGPCSTELRLLAYHH | < -0.25
178 | FIGV | < -0.25
179 | AGASEYHGKP | < -0.25
180 | PYLRDLCQNPPVQ | < -0.25
181 | GIIFWDFCTSTHVTINQKTE | < -0.25
182 | ALLGQLWQAPGCFCLNLNTE | < -0.25
183 | TGVR | < -0.25
184 | VHVH | -0.243
185 | HWPNVQNLSTYGNTDKMAVL | < -0.25
186 | ISMHSLR | < -0.25
187 | GCQVELPRVDYLSLWGRCVT | < -0.25
188 | GLSAEHRLGHVSPFVADTVR | < -0.25
189 | CTGLNLLHLARSQRGSRDGL | < -0.25
190 | ANEGTPAA | < -0.25
191 | VLRF | < -0.25
192 | LISR | < -0.25
193 | SLCGTVLN | < -0.25
194 | CVGPRMFDFVLSCAASFALA | < -0.25
195 | VNLLGC | < -0.25
196 | SPHKFIRDGGVGSRPAVQLQ | -0.231
197 | LEGQYDDVRFPVTPHILENG | < -0.25
198 | CRAPYCC | < -0.25
199 | CLDA | < -0.25
